US9567331B2 (priority 2011, dated 2017)
At least one compound was matched to its structure with a doubt left.

Test system: vaccinia virus
Assay type: cell-based

COC(=O)C1=C2C=C([Si](C)(C)C)CCN2C(=O)NC1c1ccccc1 (stereo not shown) [Compound 4c, methyl 1-oxo-3-phenyl-6-(trimethylsilyl)-2,3,7,8-tetrahydro-1Hpyrido[1,2-c]pyrimidine-4-carboxylate]
antiviral activity compared with CMLDBU6128: demonstrated antiviral activity but were significantly less active than CMLDBU6 128
